Reference: the supplement of paper PMC6411743
± gives the standard deviation of the averaged measurements. The list shows a part of the results.

By UniProt entry, the sequences of proteins in these tests, tags left out. Where a name states a change or a piece, a line headed by the entry shows the natural chain unless it says otherwise.
UniProt O95249: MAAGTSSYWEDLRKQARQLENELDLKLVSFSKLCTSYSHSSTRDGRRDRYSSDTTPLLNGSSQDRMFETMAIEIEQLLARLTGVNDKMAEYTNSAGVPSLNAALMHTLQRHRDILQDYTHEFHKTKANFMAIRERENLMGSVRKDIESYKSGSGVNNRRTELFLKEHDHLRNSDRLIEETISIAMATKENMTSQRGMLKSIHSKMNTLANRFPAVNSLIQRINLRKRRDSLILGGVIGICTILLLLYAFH
UniProt P19404, whole entry: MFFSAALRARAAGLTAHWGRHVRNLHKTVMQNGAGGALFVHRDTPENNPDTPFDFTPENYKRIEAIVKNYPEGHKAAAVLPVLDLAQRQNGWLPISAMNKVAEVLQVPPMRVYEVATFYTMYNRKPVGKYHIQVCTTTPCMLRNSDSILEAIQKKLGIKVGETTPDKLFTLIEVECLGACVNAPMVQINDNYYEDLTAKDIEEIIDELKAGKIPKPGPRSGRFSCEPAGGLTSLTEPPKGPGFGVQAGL
UniProt Q6NS38: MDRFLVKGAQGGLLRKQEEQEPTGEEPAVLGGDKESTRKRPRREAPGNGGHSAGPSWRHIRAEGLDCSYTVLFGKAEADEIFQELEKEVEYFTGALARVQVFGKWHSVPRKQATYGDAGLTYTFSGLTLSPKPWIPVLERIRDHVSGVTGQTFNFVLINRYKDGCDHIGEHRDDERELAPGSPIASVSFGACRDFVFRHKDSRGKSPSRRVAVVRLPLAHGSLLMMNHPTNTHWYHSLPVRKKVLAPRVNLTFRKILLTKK
UniProt Q96MG8: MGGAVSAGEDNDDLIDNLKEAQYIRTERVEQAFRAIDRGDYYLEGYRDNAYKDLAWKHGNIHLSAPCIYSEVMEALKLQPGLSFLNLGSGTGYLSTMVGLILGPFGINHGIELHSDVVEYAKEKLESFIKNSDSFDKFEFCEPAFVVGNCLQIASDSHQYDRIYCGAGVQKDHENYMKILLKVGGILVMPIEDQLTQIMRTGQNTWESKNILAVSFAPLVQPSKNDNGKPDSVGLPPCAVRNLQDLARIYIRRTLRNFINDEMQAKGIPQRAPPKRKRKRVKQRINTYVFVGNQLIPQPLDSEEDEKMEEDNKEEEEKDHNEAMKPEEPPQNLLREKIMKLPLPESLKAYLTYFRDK
UniProt Q9UQV4: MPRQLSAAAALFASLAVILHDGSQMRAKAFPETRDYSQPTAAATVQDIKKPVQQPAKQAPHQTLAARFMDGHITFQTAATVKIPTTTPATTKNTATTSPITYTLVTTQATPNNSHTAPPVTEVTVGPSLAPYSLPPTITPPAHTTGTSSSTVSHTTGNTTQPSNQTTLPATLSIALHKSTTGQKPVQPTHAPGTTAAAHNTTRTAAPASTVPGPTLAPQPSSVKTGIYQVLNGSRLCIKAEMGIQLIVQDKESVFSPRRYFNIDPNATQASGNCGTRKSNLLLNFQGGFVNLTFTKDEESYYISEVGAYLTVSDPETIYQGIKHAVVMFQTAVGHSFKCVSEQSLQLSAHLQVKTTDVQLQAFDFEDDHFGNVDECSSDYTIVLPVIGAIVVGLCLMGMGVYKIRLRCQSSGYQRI
UniProt Q02338: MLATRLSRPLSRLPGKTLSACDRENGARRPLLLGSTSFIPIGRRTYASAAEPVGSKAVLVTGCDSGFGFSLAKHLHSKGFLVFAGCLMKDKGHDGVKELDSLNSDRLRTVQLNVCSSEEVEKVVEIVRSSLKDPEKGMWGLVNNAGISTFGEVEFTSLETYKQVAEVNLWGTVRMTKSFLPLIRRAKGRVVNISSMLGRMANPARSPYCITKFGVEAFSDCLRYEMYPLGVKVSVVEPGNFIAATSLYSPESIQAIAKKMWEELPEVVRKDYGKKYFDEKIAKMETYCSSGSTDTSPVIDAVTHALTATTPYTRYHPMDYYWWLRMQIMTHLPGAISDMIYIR
UniProt P20936: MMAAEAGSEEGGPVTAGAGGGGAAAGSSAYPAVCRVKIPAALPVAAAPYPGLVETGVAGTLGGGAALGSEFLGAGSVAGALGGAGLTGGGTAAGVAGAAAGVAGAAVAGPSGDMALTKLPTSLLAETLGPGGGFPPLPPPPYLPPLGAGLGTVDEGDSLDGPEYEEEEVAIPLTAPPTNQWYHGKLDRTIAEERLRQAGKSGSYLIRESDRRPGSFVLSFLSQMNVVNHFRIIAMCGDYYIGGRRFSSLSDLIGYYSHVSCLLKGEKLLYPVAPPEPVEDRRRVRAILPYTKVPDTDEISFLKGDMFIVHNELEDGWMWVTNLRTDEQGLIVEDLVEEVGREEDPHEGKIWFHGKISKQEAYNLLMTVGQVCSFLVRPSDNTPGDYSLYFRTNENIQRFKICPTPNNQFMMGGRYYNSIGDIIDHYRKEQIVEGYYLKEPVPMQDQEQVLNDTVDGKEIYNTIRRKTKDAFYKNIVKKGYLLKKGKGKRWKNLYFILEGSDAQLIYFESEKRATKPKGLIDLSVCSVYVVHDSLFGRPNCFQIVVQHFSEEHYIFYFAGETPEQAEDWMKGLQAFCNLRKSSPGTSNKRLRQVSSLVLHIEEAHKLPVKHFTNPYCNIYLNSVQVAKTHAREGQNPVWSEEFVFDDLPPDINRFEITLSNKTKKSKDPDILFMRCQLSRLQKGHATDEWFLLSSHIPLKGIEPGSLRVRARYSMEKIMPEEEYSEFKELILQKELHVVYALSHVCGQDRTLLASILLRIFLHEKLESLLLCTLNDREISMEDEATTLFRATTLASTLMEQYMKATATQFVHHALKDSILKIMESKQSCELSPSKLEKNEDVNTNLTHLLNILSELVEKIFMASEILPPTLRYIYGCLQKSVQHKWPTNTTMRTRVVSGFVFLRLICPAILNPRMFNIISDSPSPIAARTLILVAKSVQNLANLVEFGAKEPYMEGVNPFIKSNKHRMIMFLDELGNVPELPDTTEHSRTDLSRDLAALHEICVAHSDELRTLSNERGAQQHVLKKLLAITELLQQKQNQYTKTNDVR
UniProt P61224: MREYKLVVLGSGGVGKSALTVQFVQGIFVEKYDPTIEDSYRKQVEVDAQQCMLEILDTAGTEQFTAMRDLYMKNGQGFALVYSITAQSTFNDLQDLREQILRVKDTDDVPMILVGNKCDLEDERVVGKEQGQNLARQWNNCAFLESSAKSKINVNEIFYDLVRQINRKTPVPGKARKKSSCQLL
UniProt Q9H3J6: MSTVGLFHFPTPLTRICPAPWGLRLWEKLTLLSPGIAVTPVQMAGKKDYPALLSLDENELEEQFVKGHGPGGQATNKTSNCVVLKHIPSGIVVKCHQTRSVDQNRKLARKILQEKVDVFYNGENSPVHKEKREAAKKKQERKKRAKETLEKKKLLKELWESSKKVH
UniProt Q9Y6M9, whole entry: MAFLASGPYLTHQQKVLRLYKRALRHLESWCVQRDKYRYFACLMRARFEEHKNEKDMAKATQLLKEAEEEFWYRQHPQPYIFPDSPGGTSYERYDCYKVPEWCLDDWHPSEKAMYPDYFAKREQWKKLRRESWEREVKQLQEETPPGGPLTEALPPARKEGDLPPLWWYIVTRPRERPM
UniProt Q8IZ69: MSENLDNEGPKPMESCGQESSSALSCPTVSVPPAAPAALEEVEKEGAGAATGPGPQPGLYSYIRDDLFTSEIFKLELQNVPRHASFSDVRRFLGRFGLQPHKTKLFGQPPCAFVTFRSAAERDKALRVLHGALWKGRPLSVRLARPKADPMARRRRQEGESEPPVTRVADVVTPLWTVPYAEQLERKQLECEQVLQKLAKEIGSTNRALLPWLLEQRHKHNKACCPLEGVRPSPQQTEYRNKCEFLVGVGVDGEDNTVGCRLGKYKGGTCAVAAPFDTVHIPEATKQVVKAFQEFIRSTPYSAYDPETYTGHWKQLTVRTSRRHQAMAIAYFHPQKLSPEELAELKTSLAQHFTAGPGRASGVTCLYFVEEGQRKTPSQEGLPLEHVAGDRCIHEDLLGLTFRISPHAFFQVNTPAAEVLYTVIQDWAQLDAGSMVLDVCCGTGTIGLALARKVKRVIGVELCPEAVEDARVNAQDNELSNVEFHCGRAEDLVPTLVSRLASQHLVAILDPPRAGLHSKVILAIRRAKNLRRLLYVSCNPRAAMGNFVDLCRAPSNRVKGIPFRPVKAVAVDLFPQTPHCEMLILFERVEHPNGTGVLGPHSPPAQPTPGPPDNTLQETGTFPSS
UniProt Q9UI26: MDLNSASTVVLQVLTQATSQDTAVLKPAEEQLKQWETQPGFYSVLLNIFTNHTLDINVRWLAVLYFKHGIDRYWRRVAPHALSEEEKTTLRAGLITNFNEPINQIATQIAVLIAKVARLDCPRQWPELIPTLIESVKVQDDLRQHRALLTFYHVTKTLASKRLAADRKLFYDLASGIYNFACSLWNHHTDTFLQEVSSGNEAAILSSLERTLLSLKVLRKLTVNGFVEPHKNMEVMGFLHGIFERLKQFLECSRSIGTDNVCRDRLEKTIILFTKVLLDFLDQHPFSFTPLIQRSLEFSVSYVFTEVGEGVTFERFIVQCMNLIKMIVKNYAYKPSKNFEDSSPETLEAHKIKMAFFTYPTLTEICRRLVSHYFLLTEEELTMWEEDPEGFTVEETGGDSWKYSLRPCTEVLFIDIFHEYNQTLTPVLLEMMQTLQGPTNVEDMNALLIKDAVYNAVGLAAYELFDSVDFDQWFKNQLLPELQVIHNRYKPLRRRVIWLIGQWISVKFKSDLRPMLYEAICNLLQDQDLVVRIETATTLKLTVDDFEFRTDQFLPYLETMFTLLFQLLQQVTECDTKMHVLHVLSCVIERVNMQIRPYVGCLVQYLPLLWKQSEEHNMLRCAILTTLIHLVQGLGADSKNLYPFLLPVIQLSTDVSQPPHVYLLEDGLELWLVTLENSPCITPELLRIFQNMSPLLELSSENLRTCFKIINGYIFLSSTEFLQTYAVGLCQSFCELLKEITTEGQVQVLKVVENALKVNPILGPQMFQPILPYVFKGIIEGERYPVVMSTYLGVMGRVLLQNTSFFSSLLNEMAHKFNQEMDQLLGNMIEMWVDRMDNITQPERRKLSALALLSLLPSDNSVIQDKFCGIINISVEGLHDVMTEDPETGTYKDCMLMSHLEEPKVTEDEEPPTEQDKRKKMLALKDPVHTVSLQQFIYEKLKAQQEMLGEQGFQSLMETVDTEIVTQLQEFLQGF
UniProt Q9BUI4: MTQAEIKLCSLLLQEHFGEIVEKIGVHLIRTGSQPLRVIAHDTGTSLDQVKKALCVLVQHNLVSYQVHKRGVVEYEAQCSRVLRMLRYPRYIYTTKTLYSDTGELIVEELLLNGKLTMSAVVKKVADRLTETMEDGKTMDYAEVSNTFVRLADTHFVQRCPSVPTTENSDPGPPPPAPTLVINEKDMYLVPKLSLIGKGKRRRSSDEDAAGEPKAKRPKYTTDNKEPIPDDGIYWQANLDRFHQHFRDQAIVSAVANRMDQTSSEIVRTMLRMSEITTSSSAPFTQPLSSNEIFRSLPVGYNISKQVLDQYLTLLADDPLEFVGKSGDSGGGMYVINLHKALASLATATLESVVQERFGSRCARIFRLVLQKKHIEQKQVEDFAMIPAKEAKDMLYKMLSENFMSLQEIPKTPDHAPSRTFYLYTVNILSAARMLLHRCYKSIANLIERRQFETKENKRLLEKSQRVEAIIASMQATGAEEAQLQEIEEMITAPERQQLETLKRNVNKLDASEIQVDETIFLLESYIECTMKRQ
UniProt P56202: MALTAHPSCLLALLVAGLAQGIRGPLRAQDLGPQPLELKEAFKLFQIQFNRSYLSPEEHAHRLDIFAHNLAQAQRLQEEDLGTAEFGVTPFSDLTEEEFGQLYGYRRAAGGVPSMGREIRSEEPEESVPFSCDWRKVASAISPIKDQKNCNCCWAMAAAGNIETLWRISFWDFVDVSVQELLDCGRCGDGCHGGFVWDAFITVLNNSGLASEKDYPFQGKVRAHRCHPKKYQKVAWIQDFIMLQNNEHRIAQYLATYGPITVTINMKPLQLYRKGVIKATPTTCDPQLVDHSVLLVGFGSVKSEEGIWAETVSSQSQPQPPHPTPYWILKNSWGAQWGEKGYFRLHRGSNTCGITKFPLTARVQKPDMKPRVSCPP
UniProt Q9NUW8, whole entry: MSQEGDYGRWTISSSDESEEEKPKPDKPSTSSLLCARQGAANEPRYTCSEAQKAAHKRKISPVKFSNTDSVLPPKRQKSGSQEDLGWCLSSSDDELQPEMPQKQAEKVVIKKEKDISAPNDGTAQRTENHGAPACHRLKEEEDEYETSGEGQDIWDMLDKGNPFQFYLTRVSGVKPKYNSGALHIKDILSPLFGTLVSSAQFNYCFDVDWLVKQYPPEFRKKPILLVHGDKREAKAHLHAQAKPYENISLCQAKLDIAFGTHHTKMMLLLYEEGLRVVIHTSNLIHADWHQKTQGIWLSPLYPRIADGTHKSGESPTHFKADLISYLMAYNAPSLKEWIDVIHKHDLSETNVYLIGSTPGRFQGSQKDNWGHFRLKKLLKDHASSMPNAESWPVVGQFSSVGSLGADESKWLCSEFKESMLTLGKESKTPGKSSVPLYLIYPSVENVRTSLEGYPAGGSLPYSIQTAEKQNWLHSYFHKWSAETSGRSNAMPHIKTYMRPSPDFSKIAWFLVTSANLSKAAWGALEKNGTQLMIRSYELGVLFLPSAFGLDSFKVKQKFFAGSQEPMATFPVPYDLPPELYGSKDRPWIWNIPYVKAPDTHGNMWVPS

compound: Nc1nc2c(ncn2[C@@H]2O[C@H](COP(=O)(O)OP(=O)(O)OP(=O)(O)O)[C@@H](O)[C@H]2O)c(=O)[nH]1 [guanosine triphosphate]; experiment: NP40-soluble protein abundance relative to vehicle (solubility fold change) (ratio); higher = more soluble protein in presence of GTP; conditions: concentration: 1mM
Method in brief: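 Eight concentrations, 0.1 to 10 mM, were tested on Jurkat crude lysate for 10 min at room temperature and then 3 min at 37 °C, in three independent experiments. The lysate was solubilised with 0.8% NP40 and benzonase, ultracentrifuged, and the supernatant TMT-labelled for LC-MS/MS. Each value is the fold change against the detergent-processed vehicle in its own replicate, from vsn-normalised intensities.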

| Target | NP40-soluble protein abundance |
| --- | --- |
| E9PCW1 and related entries (UniProt O95249) | 0.961 ± 0.004 |
| E7EPT4 and related entries (UniProt P19404) | 1.14 ± 0.18 |
| F5GZZ0 and related entries (UniProt Q6NS38) | 0.914 ± 0.024 |
| E7ESS2 and related entries (UniProt O95819) | 0.99 ± 0.067 |
| F5H2R5 and related entries (UniProt P52566) | 0.943 ± 0.06 |
| E9PMI6 and related entries (UniProt P54105) | 1.03 ± 0.037 |
| F5H1M8 and related entries (UniProt Q96MG8) | 0.951 ± 0.029 |
| E7ESG2 and related entries (UniProt Q9HAW4) | 1.05 ± 0.058 |
| E7ETP9 and related entries (UniProt Q9UQV4) | 0.898 ± 0.14 |
| E9PCG9 and related entries (UniProt Q02338) | 1 ± 0.035 |
| F8VV56 and related entries (UniProt P08962) | 0.943 ± 0.039 |
| E9PGC0 and related entries (UniProt P20936) | 1.02 ± 0.11 |
| F5H269 and related entries (UniProt Q9Y485) | 1.05 ± 0.096 |
| F5GZG1 and related entries (UniProt P61224) | 0.884 ± 0.14 |
| F5GWJ6 and related entries (UniProt Q9H3J6) | 1.16 ± 0.17 |
| E9PH64 and related entries (UniProt Q9Y6M9) | 1.11 ± 0.14 |
| F8W8C2 and related entries (UniProt Q9HBM0) | 0.948 ± 0.11 |
| E9PKV2 and related entries (UniProt Q9NRX2) | 1.28 ± 0.37 |
| F5H365 and related entries (UniProt Q15436) | 0.959 ± 0.028 |

| Target | NP40-soluble protein abundance |
| --- | --- |
| F6V2D4 and related entries (UniProt O00214) | 0.949 ± 0.086 |
| F2Z2W7 and related entries (UniProt Q8IZ69) | 1.03 ± 0.018 |
| E7ERS3 and related entries (UniProt Q86VM9) | 1.12 ± 0.045 |
| G3V502 and related entries (UniProt Q9Y5J7) | 1.08 ± 0.066 |
| F8WDV0 and related entries (UniProt Q9UI26) | 0.989 ± 0.12 |
| G3XAI9 and related entries (UniProt Q5BKY9) | 0.976 ± 0.11 |
| UniProt E9PSI1 | 1.02 ± 0.0027 |
| F8WCU9 and related entries (UniProt Q68CP9) | 1.15 ± 0.056 |
| F8VZA0 and related entries (UniProt Q9H0K6) | 0.9856 ± 0.0081 |
| E9PK57 and related entries (UniProt O94830) | 1.01 ± 0.018 |
| E9PHH9 and related entries (UniProt Q9BUI4) | 1.05 ± 0.042 |
| F8VQE1 and related entries (UniProt Q9UHB6) | 1.16 ± 0.11 |
| E9PI30 and related entries (UniProt P56202) | 0.982 ± 0.15 |
| F5GZ90 and related entries (UniProt Q9NZJ0) | 0.981 ± 0.093 |
| F8W8G5 and related entries (UniProt P10242) | 1.08 ± 0.073 |
| E7EWW0 and related entries (UniProt Q7Z3J2) | 1.04 ± 0.046 |
| E7EPD8 and related entries (UniProt Q9NUW8) | 0.97 ± 0.032 |
| E9PEL3 and related entries (UniProt P61513) | 0.975 ± 0.12 |

same assay, conditions: concentration: 2mM

| Target | NP40-soluble protein abundance |
| --- | --- |
| E9PCW1 and related entries (UniProt O95249) | 0.979 ± 0.053 |
| E7EPT4 and related entries (UniProt P19404) | 1.16 ± 0.13 |
| F5GZZ0 and related entries (UniProt Q6NS38) | 0.941 ± 0.1 |
| E7ESS2 and related entries (UniProt O95819) | 0.97 ± 0.077 |
| F5H2R5 and related entries (UniProt P52566) | 0.886 ± 0.063 |
| E9PMI6 and related entries (UniProt P54105) | 1.01 ± 0.036 |
| F5H1M8 and related entries (UniProt Q96MG8) | 0.867 ± 0.017 |
| E7ESG2 and related entries (UniProt Q9HAW4) | 0.997 ± 0.083 |
| E7ETP9 and related entries (UniProt Q9UQV4) | 0.842 ± 0.13 |
| E9PCG9 and related entries (UniProt Q02338) | 1.02 ± 0.05 |
| F8VV56 and related entries (UniProt P08962) | 0.909 ± 0.085 |
| E9PGC0 and related entries (UniProt P20936) | 0.997 ± 0.072 |
| F5H269 and related entries (UniProt Q9Y485) | 1.01 ± 0.087 |
| F5GZG1 and related entries (UniProt P61224) | 0.848 ± 0.14 |
| F5GWJ6 and related entries (UniProt Q9H3J6) | 1.18 ± 0.027 |
| E9PH64 and related entries (UniProt Q9Y6M9) | 1.11 ± 0.053 |
| F8W8C2 and related entries (UniProt Q9HBM0) | 0.972 ± 0.014 |
| E9PKV2 and related entries (UniProt Q9NRX2) | 1.37 ± 0.42 |
| F5H365 and related entries (UniProt Q15436) | 0.978 ± 0.038 |

| Target | NP40-soluble protein abundance |
| --- | --- |
| F6V2D4 and related entries (UniProt O00214) | 0.972 ± 0.13 |
| F2Z2W7 and related entries (UniProt Q8IZ69) | 1.05 ± 0.023 |
| E7ERS3 and related entries (UniProt Q86VM9) | 1.15 ± 0.037 |
| G3V502 and related entries (UniProt Q9Y5J7) | 1.01 ± 0.094 |
| F8WDV0 and related entries (UniProt Q9UI26) | 1.11 ± 0.15 |
| G3XAI9 and related entries (UniProt Q5BKY9) | 0.859 ± 0.12 |
| UniProt E9PSI1 | 0.983 ± 0.056 |
| F8WCU9 and related entries (UniProt Q68CP9) | 1.25 ± 0.12 |
| F8VZA0 and related entries (UniProt Q9H0K6) | 0.985 ± 0.035 |
| E9PK57 and related entries (UniProt O94830) | 1.04 ± 0.025 |
| E9PHH9 and related entries (UniProt Q9BUI4) | 1.07 ± 0.1 |
| F8VQE1 and related entries (UniProt Q9UHB6) | 1.16 ± 0.1 |
| E9PI30 and related entries (UniProt P56202) | 0.969 ± 0.057 |
| F5GZ90 and related entries (UniProt Q9NZJ0) | 1 ± 0.11 |
| F8W8G5 and related entries (UniProt P10242) | 1.08 ± 0.086 |
| E7EWW0 and related entries (UniProt Q7Z3J2) | 1.03 ± 0.066 |
| E7EPD8 and related entries (UniProt Q9NUW8) | 0.975 ± 0.027 |
| E9PEL3 and related entries (UniProt P61513) | 0.96 ± 0.13 |
